PubChem BioAssay AID1159579 | Peter MacCallum Cancer Centre | 2015
Screen: 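Retest candidate lymphatic endothelial migration regulators using several independent siRNAs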 (follow-up of hits). System: human dermal lymphatic endothelial cells. Reagent: single siRNA against human genes, 25 nM. Read-out: 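High content images of wound closure area and cell nuclei counts, each the average of two wells, expressed against mock transfection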. Direction: migration relative to mock: higher = more migration into the scratch; mean nuclei count: higher = more cells remaining. Hit rule: 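Called active when the migration ratio is 0.6 or lower (impaired) or 1.3 or higher (accelerated), but inactive whenever the mean nuclei count falls under 3300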. Meaning of the calls: active = migration changed (impaired or accelerated); inactive = no migration change, or too few cells.
In all, the deposit lists about 2,000 reagents; shown is a part drawn at random. In the full data, 549 (27%) were called active. 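Some migration ratios are negative; siRNAs with too few cells are inactive whatever their migration ratio.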 The numbers tell different reagents against one gene apart. Not stated in the record: the time to read-out.

SLC22A24 #1
- migration relative to mock: 0.75
- migration and cell number class: no change in migration or cell number
- mean nuclei count: 5620
- Call: inactive

SLC22A24 #2
- migration relative to mock: 0.61
- migration and cell number class: no change in migration or cell number
- mean nuclei count: 6726
- Call: inactive

SLC22A24 #3
- migration relative to mock: 0.57
- migration and cell number class: migration reduced
- mean nuclei count: 5445
- Call: active

SLC22A24 #4
- migration relative to mock: 1.04
- migration and cell number class: no change in migration or cell number
- mean nuclei count: 6442
- Call: inactive

TYRO3 #1
- migration relative to mock: 0.46
- migration and cell number class: migration reduced
- mean nuclei count: 5280
- Call: active

TYRO3 #2
- migration relative to mock: 0.94
- migration and cell number class: no change in migration or cell number
- mean nuclei count: 6893
- Call: inactive

TYRO3 #3
- migration relative to mock: 0.68
- migration and cell number class: no change in migration or cell number
- mean nuclei count: 5563
- Call: inactive

TYRO3 #4
- migration relative to mock: 0.56
- migration and cell number class: migration reduced
- mean nuclei count: 5746
- Call: active

SPATS1 #1
- migration relative to mock: 0.7
- migration and cell number class: no change in migration or cell number
- mean nuclei count: 6598
- Call: inactive

SPATS1 #2
- migration relative to mock: 0.74
- migration and cell number class: no change in migration or cell number
- mean nuclei count: 5974
- Call: inactive

SPATS1 #3
- migration relative to mock: 0.73
- migration and cell number class: no change in migration or cell number
- mean nuclei count: 5288
- Call: inactive

SPATS1 #4
- migration relative to mock: 0.29
- migration and cell number class: migration reduced
- mean nuclei count: 3557
- Call: active

PGBD5 #1
- migration relative to mock: 0.9
- migration and cell number class: no change in migration or cell number
- mean nuclei count: 4804
- Call: inactive

PGBD5 #2
- migration relative to mock: 0.53
- migration and cell number class: migration reduced
- mean nuclei count: 5531
- Call: active

PGBD5 #3
- migration relative to mock: 0.94
- migration and cell number class: no change in migration or cell number
- mean nuclei count: 5904
- Call: inactive

PGBD5 #4
- migration relative to mock: 0.56
- migration and cell number class: migration reduced
- mean nuclei count: 7221
- Call: active

ATM #1
- migration relative to mock: 0.44
- migration and cell number class: migration reduced
- mean nuclei count: 6151
- Call: active

ATM #2
- migration relative to mock: 0.64
- migration and cell number class: no change in migration or cell number
- mean nuclei count: 4791
- Call: inactive

ATM #3
- migration relative to mock: 0.48
- migration and cell number class: migration reduced
- mean nuclei count: 4564
- Call: active

ATM #4
- migration relative to mock: 0.72
- migration and cell number class: no change in migration or cell number
- mean nuclei count: 6493
- Call: inactive

SKAP2 #1
- migration relative to mock: 1.1
- migration and cell number class: no change in migration or cell number
- mean nuclei count: 5330
- Call: inactive

SKAP2 #2
- migration relative to mock: 1.02
- migration and cell number class: no change in migration or cell number
- mean nuclei count: 5344
- Call: inactive

SKAP2 #3
- migration relative to mock: 0.1
- migration and cell number class: migration reduced
- mean nuclei count: 4435
- Call: active

SKAP2 #4
- migration relative to mock: 1.07
- migration and cell number class: no change in migration or cell number
- mean nuclei count: 6255
- Call: inactive

STYK1 #1
- migration relative to mock: 0.82
- migration and cell number class: no change in migration or cell number
- mean nuclei count: 6234
- Call: inactive

STYK1 #2
- migration relative to mock: 0.62
- migration and cell number class: no change in migration or cell number
- mean nuclei count: 5323
- Call: inactive

STYK1 #3
- migration relative to mock: 0.48
- migration and cell number class: migration reduced
- mean nuclei count: 6198
- Call: active

STYK1 #4
- migration relative to mock: 0.58
- migration and cell number class: migration reduced
- mean nuclei count: 7192
- Call: active

TEK #1
- migration relative to mock: 0.12
- migration and cell number class: migration reduced
- mean nuclei count: 4394
- Call: active

TEK #2
- migration relative to mock: 0.8
- migration and cell number class: no change in migration or cell number
- mean nuclei count: 5861
- Call: inactive

TEK #3
- migration relative to mock: 0.67
- migration and cell number class: no change in migration or cell number
- mean nuclei count: 6052
- Call: inactive

TEK #4
- migration relative to mock: 0.62
- migration and cell number class: no change in migration or cell number
- mean nuclei count: 5008
- Call: inactive

Part of the list above in another layout.
target	siRNA no.	migration relative to mock	migration and cell number class	mean nuclei count	Call
PGBD5	4	0.56	migration reduced	7221	active
ATM	1	0.44	migration reduced	6151	active
ATM	2	0.64	no change in migration or cell number	4791	inactive
ATM	3	0.48	migration reduced	4564	active
ATM	4	0.72	no change in migration or cell number	6493	inactive
SKAP2	1	1.1	no change in migration or cell number	5330	inactive
SKAP2	2	1.02	no change in migration or cell number	5344	inactive
SKAP2	3	0.1	migration reduced	4435	active

The list goes on:
RELT #1
- migration relative to mock: 0.44
- migration and cell number class: migration reduced
- mean nuclei count: 4864
- Call: active

RELT #2
- migration relative to mock: 0.96
- migration and cell number class: no change in migration or cell number
- mean nuclei count: 5238
- Call: inactive

RELT #3
- migration relative to mock: 0.49
- migration and cell number class: migration reduced
- mean nuclei count: 5809
- Call: active

RELT #4
- migration relative to mock: 0.69
- migration and cell number class: no change in migration or cell number
- mean nuclei count: 5776
- Call: inactive

SLC13A5 #1
- migration relative to mock: 0.86
- migration and cell number class: no change in migration or cell number
- mean nuclei count: 7588
- Call: inactive

SLC13A5 #2
- migration relative to mock: -0.4
- migration and cell number class: migration reduced
- mean nuclei count: 4085
- Call: active

SLC13A5 #3
- migration relative to mock: 0.78
- migration and cell number class: no change in migration or cell number
- mean nuclei count: 5546
- Call: inactive

SLC13A5 #4
- migration relative to mock: 0.99
- migration and cell number class: no change in migration or cell number
- mean nuclei count: 6970
- Call: inactive

SACK1A #1
- migration relative to mock: 0.76
- migration and cell number class: no change in migration or cell number
- mean nuclei count: 4151
- Call: inactive

SACK1A #2
- migration relative to mock: -0.2
- migration and cell number class: too few cells; migration not scored
- mean nuclei count: 2266
- Call: inactive

SACK1A #3
- migration relative to mock: 0.81
- migration and cell number class: no change in migration or cell number
- mean nuclei count: 4907
- Call: inactive

SACK1A #4
- migration relative to mock: 0.87
- migration and cell number class: no change in migration or cell number
- mean nuclei count: 4815
- Call: inactive

SHB #1
- migration relative to mock: 1.06
- migration and cell number class: no change in migration or cell number
- mean nuclei count: 6710
- Call: inactive

SHB #2
- migration relative to mock: 0.99
- migration and cell number class: no change in migration or cell number
- mean nuclei count: 4588
- Call: inactive

SHB #3
- migration relative to mock: 0.77
- migration and cell number class: no change in migration or cell number
- mean nuclei count: 5206
- Call: inactive

SHB #4
- migration relative to mock: 0.57
- migration and cell number class: migration reduced
- mean nuclei count: 5512
- Call: active
